Source: paper doi:10.1101/2022.09.23.508845

Sequences of proteins named here, by UniProt entry; tags and fusion partners are left off.
UniProt O43156: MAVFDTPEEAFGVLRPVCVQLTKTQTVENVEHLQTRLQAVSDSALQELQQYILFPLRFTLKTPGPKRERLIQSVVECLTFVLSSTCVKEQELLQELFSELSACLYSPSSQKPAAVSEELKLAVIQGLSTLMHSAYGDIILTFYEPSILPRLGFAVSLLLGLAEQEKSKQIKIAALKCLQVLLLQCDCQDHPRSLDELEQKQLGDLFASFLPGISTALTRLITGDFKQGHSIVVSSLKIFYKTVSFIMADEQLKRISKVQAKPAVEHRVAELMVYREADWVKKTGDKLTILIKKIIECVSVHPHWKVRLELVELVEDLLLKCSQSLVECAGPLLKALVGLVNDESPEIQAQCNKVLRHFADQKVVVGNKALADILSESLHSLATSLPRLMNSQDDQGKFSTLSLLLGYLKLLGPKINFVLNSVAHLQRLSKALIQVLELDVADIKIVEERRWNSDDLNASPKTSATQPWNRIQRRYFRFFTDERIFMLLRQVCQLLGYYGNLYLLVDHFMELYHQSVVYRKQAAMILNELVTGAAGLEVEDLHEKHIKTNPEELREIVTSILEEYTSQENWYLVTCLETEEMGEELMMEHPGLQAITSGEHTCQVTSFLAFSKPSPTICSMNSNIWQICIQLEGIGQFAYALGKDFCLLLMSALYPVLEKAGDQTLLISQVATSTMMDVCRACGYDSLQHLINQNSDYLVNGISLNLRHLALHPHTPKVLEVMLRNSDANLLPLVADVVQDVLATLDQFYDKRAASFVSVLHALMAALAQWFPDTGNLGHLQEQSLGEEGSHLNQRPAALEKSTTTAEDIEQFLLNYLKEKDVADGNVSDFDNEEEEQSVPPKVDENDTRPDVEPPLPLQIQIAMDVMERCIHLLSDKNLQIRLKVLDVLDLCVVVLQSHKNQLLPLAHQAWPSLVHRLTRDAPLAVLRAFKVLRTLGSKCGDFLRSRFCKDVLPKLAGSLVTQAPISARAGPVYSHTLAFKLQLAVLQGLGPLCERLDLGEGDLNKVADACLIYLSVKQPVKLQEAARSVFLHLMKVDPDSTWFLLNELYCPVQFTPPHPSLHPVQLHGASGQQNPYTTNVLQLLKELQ
UniProt P78527: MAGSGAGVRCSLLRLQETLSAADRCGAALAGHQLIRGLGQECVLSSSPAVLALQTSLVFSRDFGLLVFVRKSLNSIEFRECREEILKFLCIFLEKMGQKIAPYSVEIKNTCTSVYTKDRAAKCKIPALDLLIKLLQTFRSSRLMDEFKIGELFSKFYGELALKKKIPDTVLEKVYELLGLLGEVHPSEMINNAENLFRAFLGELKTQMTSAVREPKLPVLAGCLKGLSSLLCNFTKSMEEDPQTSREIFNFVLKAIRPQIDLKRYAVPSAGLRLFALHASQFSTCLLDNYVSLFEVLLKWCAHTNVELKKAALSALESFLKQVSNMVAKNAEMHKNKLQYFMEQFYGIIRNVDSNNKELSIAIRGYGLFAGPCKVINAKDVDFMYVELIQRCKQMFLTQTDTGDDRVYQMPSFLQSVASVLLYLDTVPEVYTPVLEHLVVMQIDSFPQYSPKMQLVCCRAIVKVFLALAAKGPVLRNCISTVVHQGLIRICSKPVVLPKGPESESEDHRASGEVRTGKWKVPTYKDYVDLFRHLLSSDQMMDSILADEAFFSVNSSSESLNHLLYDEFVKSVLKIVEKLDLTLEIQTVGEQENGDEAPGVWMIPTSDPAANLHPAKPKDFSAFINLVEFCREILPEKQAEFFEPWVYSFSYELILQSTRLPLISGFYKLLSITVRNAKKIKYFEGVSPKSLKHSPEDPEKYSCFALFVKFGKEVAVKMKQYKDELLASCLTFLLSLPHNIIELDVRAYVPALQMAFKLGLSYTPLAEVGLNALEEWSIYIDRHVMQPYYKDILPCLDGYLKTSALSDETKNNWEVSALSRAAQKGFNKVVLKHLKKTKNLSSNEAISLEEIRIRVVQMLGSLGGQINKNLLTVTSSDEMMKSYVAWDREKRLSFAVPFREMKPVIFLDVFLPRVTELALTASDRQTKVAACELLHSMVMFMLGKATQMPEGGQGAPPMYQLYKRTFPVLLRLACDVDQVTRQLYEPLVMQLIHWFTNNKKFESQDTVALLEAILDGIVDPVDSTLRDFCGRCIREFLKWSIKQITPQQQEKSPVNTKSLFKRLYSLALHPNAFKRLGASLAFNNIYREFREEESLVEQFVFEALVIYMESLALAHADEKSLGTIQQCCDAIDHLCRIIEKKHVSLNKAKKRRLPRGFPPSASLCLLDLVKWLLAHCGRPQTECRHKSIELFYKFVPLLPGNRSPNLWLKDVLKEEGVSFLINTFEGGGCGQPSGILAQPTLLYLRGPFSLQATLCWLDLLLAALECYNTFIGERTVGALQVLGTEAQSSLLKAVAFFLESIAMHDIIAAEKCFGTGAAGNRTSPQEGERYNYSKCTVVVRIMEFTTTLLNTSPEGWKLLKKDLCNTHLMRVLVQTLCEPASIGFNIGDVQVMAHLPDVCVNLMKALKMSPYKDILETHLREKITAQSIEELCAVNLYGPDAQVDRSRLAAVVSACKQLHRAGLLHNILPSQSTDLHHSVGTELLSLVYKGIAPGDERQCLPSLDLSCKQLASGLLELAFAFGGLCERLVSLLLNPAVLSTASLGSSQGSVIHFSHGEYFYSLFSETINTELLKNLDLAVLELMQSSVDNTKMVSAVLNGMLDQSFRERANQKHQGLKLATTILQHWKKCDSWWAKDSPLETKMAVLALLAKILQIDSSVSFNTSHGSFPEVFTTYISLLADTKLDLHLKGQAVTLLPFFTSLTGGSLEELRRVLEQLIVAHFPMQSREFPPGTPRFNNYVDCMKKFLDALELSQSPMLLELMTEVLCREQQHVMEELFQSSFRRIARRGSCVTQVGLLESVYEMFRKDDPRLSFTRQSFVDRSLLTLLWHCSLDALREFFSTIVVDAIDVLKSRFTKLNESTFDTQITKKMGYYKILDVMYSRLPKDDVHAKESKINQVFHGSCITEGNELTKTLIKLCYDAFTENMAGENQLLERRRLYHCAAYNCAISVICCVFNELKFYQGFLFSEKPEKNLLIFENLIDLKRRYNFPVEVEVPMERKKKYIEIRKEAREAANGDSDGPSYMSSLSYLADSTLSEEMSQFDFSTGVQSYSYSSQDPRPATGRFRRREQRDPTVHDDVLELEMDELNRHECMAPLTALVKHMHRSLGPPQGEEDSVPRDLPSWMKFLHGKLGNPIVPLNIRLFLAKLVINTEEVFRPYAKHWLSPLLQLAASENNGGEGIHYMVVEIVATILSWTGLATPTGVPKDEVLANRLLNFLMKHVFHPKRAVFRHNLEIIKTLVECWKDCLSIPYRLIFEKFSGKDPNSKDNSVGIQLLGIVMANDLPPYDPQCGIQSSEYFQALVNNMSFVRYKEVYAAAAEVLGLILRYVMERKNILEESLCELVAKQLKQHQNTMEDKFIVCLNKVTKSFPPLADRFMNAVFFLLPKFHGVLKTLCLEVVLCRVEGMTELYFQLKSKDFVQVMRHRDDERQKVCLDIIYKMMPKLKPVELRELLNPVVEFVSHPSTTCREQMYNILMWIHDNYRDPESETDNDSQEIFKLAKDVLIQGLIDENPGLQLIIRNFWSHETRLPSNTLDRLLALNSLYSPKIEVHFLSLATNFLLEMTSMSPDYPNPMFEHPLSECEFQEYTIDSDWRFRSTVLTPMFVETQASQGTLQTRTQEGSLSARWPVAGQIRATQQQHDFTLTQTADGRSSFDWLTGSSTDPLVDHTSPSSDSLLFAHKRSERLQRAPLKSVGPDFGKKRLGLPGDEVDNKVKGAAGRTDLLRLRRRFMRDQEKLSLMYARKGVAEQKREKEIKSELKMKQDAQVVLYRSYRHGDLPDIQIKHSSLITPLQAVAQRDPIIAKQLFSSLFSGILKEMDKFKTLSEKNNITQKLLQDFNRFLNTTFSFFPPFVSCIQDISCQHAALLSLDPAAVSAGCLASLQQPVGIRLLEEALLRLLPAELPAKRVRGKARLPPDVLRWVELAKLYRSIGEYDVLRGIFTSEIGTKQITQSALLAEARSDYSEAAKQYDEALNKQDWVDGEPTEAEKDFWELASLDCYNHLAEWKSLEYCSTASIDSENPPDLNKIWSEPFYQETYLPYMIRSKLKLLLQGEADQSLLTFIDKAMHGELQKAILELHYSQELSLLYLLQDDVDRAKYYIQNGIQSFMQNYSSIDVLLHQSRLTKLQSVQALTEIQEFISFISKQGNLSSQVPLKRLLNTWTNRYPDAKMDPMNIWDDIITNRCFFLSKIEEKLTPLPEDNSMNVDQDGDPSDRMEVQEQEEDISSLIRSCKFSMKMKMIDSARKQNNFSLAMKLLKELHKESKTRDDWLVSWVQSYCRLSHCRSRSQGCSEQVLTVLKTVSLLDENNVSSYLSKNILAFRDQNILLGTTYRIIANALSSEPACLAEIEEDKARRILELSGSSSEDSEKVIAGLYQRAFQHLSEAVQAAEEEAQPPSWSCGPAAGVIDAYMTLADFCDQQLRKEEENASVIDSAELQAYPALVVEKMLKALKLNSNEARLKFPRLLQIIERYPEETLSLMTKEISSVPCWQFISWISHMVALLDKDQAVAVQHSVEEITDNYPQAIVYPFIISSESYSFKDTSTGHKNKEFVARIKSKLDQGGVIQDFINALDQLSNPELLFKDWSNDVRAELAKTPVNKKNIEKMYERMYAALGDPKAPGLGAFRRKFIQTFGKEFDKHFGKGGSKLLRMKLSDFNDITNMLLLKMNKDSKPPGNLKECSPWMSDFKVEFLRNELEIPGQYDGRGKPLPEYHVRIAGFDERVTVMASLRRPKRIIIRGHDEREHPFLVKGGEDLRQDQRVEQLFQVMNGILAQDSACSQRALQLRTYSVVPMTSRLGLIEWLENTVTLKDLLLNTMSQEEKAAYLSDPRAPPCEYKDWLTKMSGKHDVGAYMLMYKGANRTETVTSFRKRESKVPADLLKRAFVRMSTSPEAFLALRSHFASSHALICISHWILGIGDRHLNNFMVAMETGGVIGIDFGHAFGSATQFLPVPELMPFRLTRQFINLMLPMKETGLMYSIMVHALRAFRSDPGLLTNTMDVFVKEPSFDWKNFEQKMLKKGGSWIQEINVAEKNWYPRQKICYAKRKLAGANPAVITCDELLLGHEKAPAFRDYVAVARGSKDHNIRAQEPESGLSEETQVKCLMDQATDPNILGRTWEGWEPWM

Tests used:
[1] = target: T1, miniTurbo-3xFlag-GNB1L (human) (UniProt Q9BYB4); test: proximity labelling
T1 sequence: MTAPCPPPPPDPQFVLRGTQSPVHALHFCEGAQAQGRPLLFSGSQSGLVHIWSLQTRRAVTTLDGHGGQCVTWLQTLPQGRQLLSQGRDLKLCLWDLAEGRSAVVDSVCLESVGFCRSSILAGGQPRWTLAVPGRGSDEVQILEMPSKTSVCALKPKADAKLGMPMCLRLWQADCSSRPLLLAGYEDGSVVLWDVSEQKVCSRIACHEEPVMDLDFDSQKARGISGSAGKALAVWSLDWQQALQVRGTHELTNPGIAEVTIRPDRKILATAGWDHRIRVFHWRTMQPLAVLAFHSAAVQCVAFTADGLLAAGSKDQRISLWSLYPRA

[2] = target: T1, miniTurbo-3xFlag-GNB1L (human); test: proximity labelling; remark: listed apart in the source

Molecule: ATR (from UniProt Q13535 1-2644)
binding [1]: binds | binding [2]: binds

B1: TTI2 (protein, UniProt Q6NXR4 1-508)
chain: MELDSALEAPSQEDSNLSEELSHSAFGQAFSKILHCLARPEARRGNVKDAVLKDLGDLIEATEFDRLFEGTGARLRGMPETLGQVAKALEKYAAPSKEEEGGGDGHSEAAEKAAQVGLLFLKLLGKVETAKNSLVGPAWQTGLHHLAGPVYIFAITHSLEQPWTTPRSREVAREVLTSLLQVTECGSVAGFLHGENEDEKGRLSVILGLLKPDLYKESWKNNPAIKHVFSWTLQQVTRPWLSQHLERVLPASLVISDDYQTENKILGVHCLHHIVLNVPAADLLQYNRAQVLYHAISNHLYTPEHHLIQAVLLCLLDLFPILEKTLHWKGDGARPTTHCDEVLRLILTHMEPEHRLLLRRTYARNLPAFVNRLGILTVRHLKRLERVIIGYLEVYDGPEEEARLKILETLKLLMQHTWPRVSCRLVVLLKALLKLICDVARDPNLTPESVKSALLQEATDCLILLDRCSQGRVKGLLAKIPQSCEDRKVVNYIRKVQQVSEGAPYNGT
binding [2]: binds

Continued, values first:

binding [1]: binds | binding [2]: binds
Molecule: TRRAP (from UniProt Q9Y4A5 1-3859)

binding [1]: binds | binding [2]: binds
Molecule: TTI1 (from UniProt O43156 1-1089)

binding [1]: binds | binding [2]: binds
Molecule: DNA-PKcs (from UniProt P78527 1-4128)

Read-outs that look alike come from different tables or passages of the source. Results are given in words; binding and its absence hold for the method and conditions named. Binding seen in cells or lysates may run through a third protein. Here binding means that the protein was enriched with, or labelled near, the bait; the list need not be complete. Where a sequence is shown, tags or fusion partners need not be part of it. One block for each molecule: values may come before it.
